Experimental data reported in publication PMC8508768, “Halting Tumor Progression via Novel Non-Hydroxamate Triazole-Based Mannich Bases MMP-2/9 Inhibitors; Design, Microwave-Assisted Synthesis, and Biological Evaluation” (International Journal of Molecular Sciences, 2021).

system: MDA-MB 231; test: MTT anticancer assay, breast cancer cells; assay type: cell-based, human; details: selectivity index: ratio of IC50 against normal (Wi-38) and cancer cells
Source text: [The source words this procedure for another cell line and reports this cell line under the same test.] All the newly synthesized derivatives were firstly screened for cytotoxic activities on normal lung fibroblasts (Wi-38) for evaluating their safety profiles.

For `CCn1c(Cn2cc(-c3ccccc3)nn2)nn(CN2CCCCC2)c1=S` [Compound 10, 4-Ethyl-3-((4-phenyl-1H-1,2,3-triazol-1-yl)methyl)-1-(piperidin-1-ylmethyl)-1H-1,2,4-triazole-5(4H)-thione], which “MDA-MB 231 SI” value is on record?
Its value is 1.621.

With `CCn1c(Cn2cc(-c3ccccc3)nn2)nn(CN2CCN(C)CC2)c1=S` [Compound 14, 1-((4-Methylpiperazin-1-yl)methyl)-4-ethyl-3-((4-phenyl-1H-1,2,3-triazol-1-yl)methyl)-1H-1,2,4-triazole-5(4H)-thione] as the compound, how does the “MDA-MB 231 SI” value read?
The value was 0.844.

For `CCn1c(Cn2cc(-c3ccccc3)nn2)nn(CN2CCOCC2)c1=S` [Compound 12, 1-(Morpholinomethyl)-4-ethyl-3-((4-phenyl-1H-1,2,3-triazol-1-yl)methyl)-1H-1,2,4-triazole-5(4H)-thione], which “MDA-MB 231 SI” value is on record?
The value was 2.395.

With `S=c1n(CN2CCOCC2)nc(Cn2cc(-c3ccccc3)nn2)n1-c1ccccc1` [Compound 11, 1-(Morpholinomethyl)-4-phenyl-3-((4-phenyl-1H-1,2,3-triazol-1-yl)methyl)-1H-1,2,4-triazole-5(4H)-thione] as the compound, how does the “MDA-MB 231 SI” value read?
The value was 0.745.

How did the “MDA-MB 231 SI” value turn out when `S=c1n(CN2CCCCC2)nc(Cn2cc(-c3ccccc3)nn2)n1-c1ccccc1` [Compound 9, 4-Phenyl-3-((4-phenyl-1H-1,2,3-triazol-1-yl)methyl)-1-(piperidin-1-ylmethyl)-1H-1,2,4-triazole-5(4H)-thione] was run?
The value was 0.763.

`CN1CCN(Cn2nc(Cn3cc(-c4ccccc4)nn3)n(-c3ccccc3)c2=S)CC1` [Compound 13, 1-((4-Methylpiperazin-1-yl)methyl)-4-phenyl-3-((4-phenyl-1H-1,2,3-triazol-1-yl)methyl)-1H-1,2,4-triazole-5(4H)-thione] was tested. Which “MDA-MB 231 SI” value did it give?
The value was 1.562.
